# Assay results from PubChem BioAssay AID1347426 (Functional Genomics Laboratory (NCATS/FGL), 2020).
# Out of some 31,000 sequences screened, about 1,400 (4.5%) were called active.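 Rule for the calls: active = median seed-adjusted z-score above 1 or below -1; inactive = the rest.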 The list shows a part of the results.
# Assay: Novel Modifiers of Survival Motor Neuron (SMN) Protein: Gene Identification via Genome-wide siRNA Screen;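 note: luminescence tracks full-length SMN protein made from the SMN2 reporter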
# Settings: HEK293T SMN2-luciferase reporter, siRNA knockdown, 72 h; actives lie on both sides
# Summary of the method: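 Each of three siRNAs per gene is reverse-transfected (1 pmol) into reporter HEK293T cells whose luciferase output tracks SMN protein level. After 72 h culture, ONE-Glo luminescence is control-normalized, log10-transformed and MAD-standardized; Common Seed Analysis deprioritizes seed-driven hits.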
row,Sequence,median seed-adjusted z-score
1,GCCUUGUGCCGUGCACUAUTT against CHST14,inactive: 0.228
2,GGCAGAACCUAUACCAGAATT against MED6,active: -2.15
3,CGGACAGGGUCUACAUCAATT against MIF,inactive: 0.214
4,GGACAUCGAAAAGUUAGUATT against MX2,inactive: -0.0346
5,GUAUUGCGGUGAUCAAAUATT against ZNF589,inactive: -0.0897
6,GGUUCCUCCAUUCAGCUUATT against TRIM74,inactive: 0.0932
7,AGCCUUUAGUGUCCGUUCATT against ZNF347,inactive: 0
8,GGACGAAUGAGUUCCAGUUTT against PCDHB8,active: 1.15
9,GUUCUUCAGUGACGCCCGATT against SPTBN4,inactive: -0.0625
10,GCCUUAGUGUGCCUCCCAATT against APLN,inactive: 0.0181
11,GCAGGAUGAUCUCAAGUAUTT against MOBKL2B,inactive: -0.613
12,GCGUGAAUGAUAAAGGGCUTT against DPP4,inactive: 0.0394
13,GUUGCACGAUGGGAACACATT against PEMT,inactive: 0.0218
14,GCAUCAUGUUUAUUGCGAATT against ABCB11,inactive: 0.14
15,GAAGGACUAUCACAUCGAATT against HAAO,inactive: 0.214
16,GAACGUACUCUUGCUUAUATT against ATP6V1D,inactive: 0.594
17,CACUGACUCGGAAACUGCATT against IGF2BP3,inactive: -0.636
18,CGGACAUGGUGGAAUCAGUTT against VAT1,inactive: -0.744
19,GACACUAUCUUGCUAGGCATT against UTY,inactive: -0.538
20,GCGGGUUACUUUUUGGGCATT against SLC33A1,inactive: 0.2
21,CGAGUUCUGUAUACUCUAATT against GABRG1,inactive: 0.312
22,CCGAGGAUCUGUCCACCAATT against ZNF366,inactive: 0.585
23,CAGCUACUUUCAUACAGCATT against PKP2,inactive: -0.0809

row,Sequence,median seed-adjusted z-score
1,CAUAAGGUCUUUGAAGGAATT against GPI,inactive: -0.122
2,CCAUCACGUUCAUUACCUUTT against GAN,active: -1.07
3,GGACUAAAUAGGAAUAGUUTT against PDE3B,inactive: -0.0475
4,CCAUCUACAUCAGAGUCCATT against BTN1A1,inactive: 0.291
5,GCAGAGAUCUUAUUGCAUATT against DNMT3L,inactive: 0.0651
6,GACUAUCAAUUCACAUGAATT against OMG,inactive: 0.273
7,CCAAUAGCAGUUACCCAAATT against SMAD1,inactive: -0.0282
8,GGCACGAGGUCAUCUCUUUTT against ZNF557,inactive: -0.197
9,CAAACUUGGACUUUCCAAATT against MAP2K1IP1,inactive: 0.333
10,AAAUCCUUGGGUCAACAUUTT against NOX1,inactive: -0.221
11,CCAAUUCACCCACUCCCUUTT against AQP1,inactive: 0.274
12,AAGUGAAGAUGGUCUUUGATT against VIPR1,inactive: 0.168
13,AGCACCUCGUGAACCACUATT against KCTD7,inactive: 0.484
14,CAAUGAAGAAUCGAAUGAATT against IBSP,inactive: -0.111
15,GCGACUUUCCUAAGACCUUTT against MEF2B,inactive: 0.263
16,GGAGAGUGGUGAUCGGAUATT against MYOM3,inactive: -0.012
17,GCUACGCUUUGGAAUCUAUTT against CPNE1,inactive: -0.0206
18,AGAUCUACAUUUCAACCCUTT against AKAP1,inactive: 0.182
19,CAAGCUCCAUUUUGAAUCATT against SRR,inactive: -0.256
20,GAAGCUCCGAGUUCUCUUATT against ZXDC,inactive: -0.0213
21,GAACUAUACAUGCGAAGAATT against RDX,inactive: 0.123
22,GGUUUUAACUGCGAGAGUATT against FN1,inactive: -0.312
23,GGAUCAUCGAGUGCAAUGATT against GAMT,inactive: -0.161

# Shown with bars between the fields: entries from further up
row | Sequence | median seed-adjusted z-score
1 | GCCUUGUGCCGUGCACUAUTT against CHST14 | inactive: 0.228
20 | GCGGGUUACUUUUUGGGCATT against SLC33A1 | inactive: 0.2
16 | GGAGAGUGGUGAUCGGAUATT against MYOM3 | inactive: -0.012

# Next part.

row,Sequence,median seed-adjusted z-score
1,GGAAGGGUAUCAUUACAGATT against TPBG,inactive: -0.128
2,GACUGGUGUUUAUCUAUGATT against PTPN9,inactive: 0.148
3,AGAUGGUAACCAUACUCUATT against COX6A1,inactive: -0.0917
4,GUUCAGACAUCAUAAGAGATT against RAD18,inactive: 0.562
5,AGUUUGUGAUAUCAUGAGATT against FRMPD2,inactive: -0.329
6,GUGCACUACUUACAGUUCATT against MAK10,inactive: 0.124
7,GCACGGUCAUGGUUCGAAUTT against PCDHB4,inactive: 0.00998
8,GUGGUUAACUUGGACCUCATT against PARVB,inactive: -0.0102
9,CAGCUGUGCUAAUCGGCUATT against COL15A1,inactive: 0.161
10,GGAAAGAGCUUUCACAGGATT against RCOR3,inactive: 0.0446
11,GCACCUACUCCUAUCCCGATT against RFX1,inactive: 0.818
12,GUGCGAAGGUUUUUAAUCATT against ZNF816A,inactive: 0.39
13,GCCUGUCUCUCAUAAAGUATT against DDOST,inactive: -0.315
14,GGAACCUCUCAAGAGCUUATT against VPS72,inactive: 0.572
15,GGAUGGAACCAAGAGAGCATT against CARD10,inactive: -0.929
16,GCAUCGUACUAUGAACAGUTT against CPB2,inactive: -0.62
17,GCUUUGUAGUUUGCCCAGATT against TCAP,inactive: -0.177
18,GCAUAUUCCGGUGAUAACUTT against RAB6C,active: -1.08
19,GGAGCUGAUCAUCAACAAATT against SYMPK,inactive: 0.946
20,GCACUGUACGCUACGGAGATT against KCNJ10,inactive: -0.0371
21,UGAGGAUAUUUAAAAUUCATT against CLDN6,inactive: -0.281
22,GGAAAGAGCUUCUACGUGUTT against TTF2,inactive: 0.282
23,AGAUGACAGAAGACAUGAATT against APOB48R,inactive: 0.386
